The values below come from patent US20040091468, “Novel transcriptional mediators of blood vessel development and endothelial differentiation” (published 2004).

Series [1] deals with T1, cELF-1 (endogenous, CAM extract) (Gallus gallus).
T1 sequence (limits assumed): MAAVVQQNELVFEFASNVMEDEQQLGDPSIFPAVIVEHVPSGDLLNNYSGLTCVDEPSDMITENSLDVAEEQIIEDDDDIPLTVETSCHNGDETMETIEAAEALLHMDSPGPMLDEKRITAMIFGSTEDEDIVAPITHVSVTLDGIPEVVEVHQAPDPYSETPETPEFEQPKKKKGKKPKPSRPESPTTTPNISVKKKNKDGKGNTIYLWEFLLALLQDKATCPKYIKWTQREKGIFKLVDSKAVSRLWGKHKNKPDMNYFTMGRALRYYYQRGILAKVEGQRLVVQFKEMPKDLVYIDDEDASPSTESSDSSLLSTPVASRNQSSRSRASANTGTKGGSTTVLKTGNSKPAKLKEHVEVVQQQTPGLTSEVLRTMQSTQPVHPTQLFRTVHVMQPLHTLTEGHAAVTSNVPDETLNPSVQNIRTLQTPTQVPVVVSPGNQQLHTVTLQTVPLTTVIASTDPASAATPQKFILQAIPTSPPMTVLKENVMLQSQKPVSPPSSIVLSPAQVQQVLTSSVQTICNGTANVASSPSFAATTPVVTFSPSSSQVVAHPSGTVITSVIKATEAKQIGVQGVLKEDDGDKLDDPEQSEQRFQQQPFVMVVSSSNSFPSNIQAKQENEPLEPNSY
The series can be described thus: EMSA. As to conditions: day 10 chicken CAM cell extract; supershifted by anti-ELF-1 antibody; protein in an extract; label: 32P.

Series [2] deals with T2, ELF-1 (Homo sapiens) (UniProt P32519).
T2 sequence (limits assumed): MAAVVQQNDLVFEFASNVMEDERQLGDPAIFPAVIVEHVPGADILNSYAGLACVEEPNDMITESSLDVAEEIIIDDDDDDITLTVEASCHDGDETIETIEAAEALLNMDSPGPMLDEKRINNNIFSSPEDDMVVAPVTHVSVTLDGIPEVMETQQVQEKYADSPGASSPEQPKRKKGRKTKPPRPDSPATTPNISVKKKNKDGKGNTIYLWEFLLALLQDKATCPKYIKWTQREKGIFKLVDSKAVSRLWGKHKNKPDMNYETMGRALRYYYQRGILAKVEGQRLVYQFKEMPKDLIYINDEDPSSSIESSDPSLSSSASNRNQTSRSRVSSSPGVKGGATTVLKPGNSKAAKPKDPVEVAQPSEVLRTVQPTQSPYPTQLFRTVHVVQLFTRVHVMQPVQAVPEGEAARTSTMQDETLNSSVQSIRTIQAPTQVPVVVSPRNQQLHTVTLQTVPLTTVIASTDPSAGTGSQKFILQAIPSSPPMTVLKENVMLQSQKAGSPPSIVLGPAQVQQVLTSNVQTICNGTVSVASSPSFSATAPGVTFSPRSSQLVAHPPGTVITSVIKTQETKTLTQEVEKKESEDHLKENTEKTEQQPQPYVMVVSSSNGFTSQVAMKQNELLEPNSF
The series can be described thus: EMSA. Conditions: anti-ELF-1 antibody interferes with complex; also blocked by ELF-1 peptide A at 0.5-1.0 uM (p236, FIG. 12); protein translated in vitro; label: 32P. (Mobility shift assays separate free from complexed probe on a gel.)

Series [3] has as its system T3, cELF-1 (Gallus gallus).
T3 sequence (limits assumed): T1 sequence (limits assumed)
The series can be described thus: competition with a labelled probe. As to conditions: 5 or 50 ng cold competitor vs Tie1 P2 probe; competes only weakly; protein translated in vitro; variant of Tie1 P2.

For part of these data: Weaker means in comparison with the reference protein, sequence or condition of that experiment. Tags and fusion partners may be left off the protein sequences shown. For part of these data: At least one result comes from cells or an extract, where the contact may be indirect. For part of these data: For at least one entry, the source does not settle the construct or the ends of the probe.

“TGCAAAGGAAACAGGAAAAAGGAACTTAAC (double strand) [Tie2 promoter Ets oligonucleotide]”: the binding result in series [1] and in series [2] was “binds” throughout.
For the sequence “CCATCATTTAATCTTCCTCCCCAG (double strand) [Tie1 P2 Mut1]”, the binding result in series [3] is recorded as “binds more weakly”.
